Measured values reported in paper PMC8629386.
These are yes or no findings as the source states them, for the method shown. Binding calls can cover weak binding; strength is not graded here. Sequences can lack the tags named with a protein. For some of these results: In cells and extracts the contact can be indirect. One block for each molecule: values may come before it.

Chains of the proteins cited; added tags and fusions are not shown. Lines headed by an entry give the natural chain unless they say otherwise; changes in a name come on top.
UniProt Q8I1T8: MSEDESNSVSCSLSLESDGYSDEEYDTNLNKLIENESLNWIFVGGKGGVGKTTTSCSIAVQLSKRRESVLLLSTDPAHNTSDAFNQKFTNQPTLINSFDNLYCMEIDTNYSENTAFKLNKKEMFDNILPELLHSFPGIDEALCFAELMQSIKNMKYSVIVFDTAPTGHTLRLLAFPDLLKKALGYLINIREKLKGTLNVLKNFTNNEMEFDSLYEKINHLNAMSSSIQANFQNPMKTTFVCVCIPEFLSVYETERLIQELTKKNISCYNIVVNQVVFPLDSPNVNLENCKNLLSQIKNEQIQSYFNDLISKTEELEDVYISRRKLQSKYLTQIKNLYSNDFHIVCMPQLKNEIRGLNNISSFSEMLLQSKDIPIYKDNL

Columns and labels:
[1] = target: T1, 6×his-PfBOS1 (P. falciparum 3D7) (UniProt Q8IIP9); assay: pull-down; 6×his-tagged TA protein and PfGet3 co-expressed in E. coli Rosetta (DE3) from pCDFDuet-1; soluble crude lysate on Ni^2+-NTA resin, 2 h at 4°C, 50 mM Tris.HCl pH 8, 500 mM NaCl, wash with 40 mM imidazole; western blot with anti-PfGet3 and anti-His
T1 sequence: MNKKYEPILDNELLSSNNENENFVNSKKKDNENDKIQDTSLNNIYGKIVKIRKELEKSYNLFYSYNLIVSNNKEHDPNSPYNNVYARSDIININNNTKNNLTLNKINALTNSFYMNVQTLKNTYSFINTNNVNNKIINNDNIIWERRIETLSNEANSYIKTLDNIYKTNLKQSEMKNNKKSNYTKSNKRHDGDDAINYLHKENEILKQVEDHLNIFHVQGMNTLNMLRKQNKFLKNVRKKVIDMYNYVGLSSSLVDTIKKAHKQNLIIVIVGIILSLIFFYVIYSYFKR

[2] = target: T2, 6×his-PfUSE1 (P. falciparum 3D7) (UniProt Q8IBY2); assay: as above
T2 sequence: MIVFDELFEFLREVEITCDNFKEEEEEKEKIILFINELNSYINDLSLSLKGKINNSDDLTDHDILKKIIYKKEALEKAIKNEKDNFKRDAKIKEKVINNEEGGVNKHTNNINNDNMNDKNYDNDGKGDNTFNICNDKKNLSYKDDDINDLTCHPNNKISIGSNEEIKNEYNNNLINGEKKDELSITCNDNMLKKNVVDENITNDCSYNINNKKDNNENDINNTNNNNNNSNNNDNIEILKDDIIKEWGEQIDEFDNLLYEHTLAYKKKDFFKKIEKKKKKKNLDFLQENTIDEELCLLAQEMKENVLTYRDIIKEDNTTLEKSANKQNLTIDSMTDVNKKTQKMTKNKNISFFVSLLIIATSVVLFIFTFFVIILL

[3] = target: recombinant PfGet3-6×his (P. falciparum 3D7) (UniProt Q8I1T8); assay: pull-down; purified MBP fusion or MBP (2–5 μg) incubated with purified PfGet3-6×his 2 h at 4°C in 50 mM Tris.HCl pH 8.0, 200 mM NaCl, 0.1% NP-40, 20 mM imidazole, 1 mM DTT, 1 mg/ml BSA; captured on Ni^2+-NTA beads; western blot with anti-MBP and anti-PfGet3; both purified

binding [1]: binds
binding [2]: binds
Molecule: recombinant PfGet3 co-expressed from pCDFDuet-1 (from UniProt Q8I1T8)

binding [3]: binds
B1: MBP-PfGet2^CD (domain or fragment, UniProt O96235 1-246)
chain: MDKNTLKRRSRLLQKNEARMSMLLGRNLDDEISKEKKESNKNDKHKKNDQHKKNDKSNQNGEDNQNGEDNQNDESNQNDEHKKNDEHKKNDEHNQNDEHNQNDEHNQNDEHNQNDEHNQNDEHNQNDEHNQNDEHNQNDESNQNDKNRKEIPPKEEKDKENNPSVVMENNNNIRKDQDNKTSEHKSSTNIYNKDKNNDYNKLLDKDDNNNNNKNINKNDENDFTSINNDIPNKNKITSQFIITKHE

binding [3]: binds
B2: recombinant MBP-PfGet4 (protein, UniProt Q8IL82 1-277)
chain: MKKFKFSKEKLAKEKIENGLHYEAHQLIKSIINRKLQKNQISNCISVIFYFSLKFATAEQYVLLCDLMYQCCLILTQHDIEFNLEYANKIIEIFQKCPPNSTEEKYKFMNKSILWSKSEENVYGYLEFHKVIGYAYFEDKQYSLAHNHFIYLDDNDILYEIICLWRKEAYPSESHFFVLRTILCLLVLDKFDQALNLINMFETNLNRQDVPLPIQLAYLITSSCIYKSLALYEDVKYKYRLILNYDPDFQKYINIIDAAVFNKKKHNLFSMFQNIFA
